Data from PMC9199239.
Where a chain is given by its changes, count along the chain named. Results are given in words; binding and its absence hold for the method and conditions named. In cells and extracts the contact can be indirect. Some results given as binding are weak or reduced against the parent protein; the word gives no strength. For part of these data: Where a sequence is shown, tags or fusion partners need not be part of it.

Amino acid sequences for entries named in this document (tags omitted).
UniProt Q05397: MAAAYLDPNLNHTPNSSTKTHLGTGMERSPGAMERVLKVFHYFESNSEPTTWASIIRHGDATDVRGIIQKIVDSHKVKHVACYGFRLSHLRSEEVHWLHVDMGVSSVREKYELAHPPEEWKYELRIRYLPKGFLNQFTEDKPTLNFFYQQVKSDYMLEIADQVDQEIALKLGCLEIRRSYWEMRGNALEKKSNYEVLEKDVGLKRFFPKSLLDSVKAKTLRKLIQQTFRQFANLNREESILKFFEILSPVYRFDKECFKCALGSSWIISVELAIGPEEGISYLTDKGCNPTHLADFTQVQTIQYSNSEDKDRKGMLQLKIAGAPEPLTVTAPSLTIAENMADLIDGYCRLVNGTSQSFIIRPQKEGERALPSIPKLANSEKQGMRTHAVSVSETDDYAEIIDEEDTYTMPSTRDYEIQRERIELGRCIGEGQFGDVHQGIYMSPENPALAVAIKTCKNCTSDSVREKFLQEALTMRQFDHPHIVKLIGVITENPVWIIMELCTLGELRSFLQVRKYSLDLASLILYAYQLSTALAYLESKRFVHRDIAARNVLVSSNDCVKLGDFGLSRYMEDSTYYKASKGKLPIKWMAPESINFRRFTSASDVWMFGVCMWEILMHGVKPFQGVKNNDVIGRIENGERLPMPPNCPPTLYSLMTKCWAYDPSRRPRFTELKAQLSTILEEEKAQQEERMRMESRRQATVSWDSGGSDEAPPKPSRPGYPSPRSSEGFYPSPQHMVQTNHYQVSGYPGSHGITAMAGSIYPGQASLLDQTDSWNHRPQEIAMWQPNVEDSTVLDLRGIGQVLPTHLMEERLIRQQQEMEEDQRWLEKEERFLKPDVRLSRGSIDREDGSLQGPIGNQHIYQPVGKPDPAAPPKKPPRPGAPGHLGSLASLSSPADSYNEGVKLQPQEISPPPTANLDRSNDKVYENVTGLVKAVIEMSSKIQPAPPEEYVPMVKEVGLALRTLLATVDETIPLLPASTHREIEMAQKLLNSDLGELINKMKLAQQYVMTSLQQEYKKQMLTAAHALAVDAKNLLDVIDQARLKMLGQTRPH
UniProt Q07157: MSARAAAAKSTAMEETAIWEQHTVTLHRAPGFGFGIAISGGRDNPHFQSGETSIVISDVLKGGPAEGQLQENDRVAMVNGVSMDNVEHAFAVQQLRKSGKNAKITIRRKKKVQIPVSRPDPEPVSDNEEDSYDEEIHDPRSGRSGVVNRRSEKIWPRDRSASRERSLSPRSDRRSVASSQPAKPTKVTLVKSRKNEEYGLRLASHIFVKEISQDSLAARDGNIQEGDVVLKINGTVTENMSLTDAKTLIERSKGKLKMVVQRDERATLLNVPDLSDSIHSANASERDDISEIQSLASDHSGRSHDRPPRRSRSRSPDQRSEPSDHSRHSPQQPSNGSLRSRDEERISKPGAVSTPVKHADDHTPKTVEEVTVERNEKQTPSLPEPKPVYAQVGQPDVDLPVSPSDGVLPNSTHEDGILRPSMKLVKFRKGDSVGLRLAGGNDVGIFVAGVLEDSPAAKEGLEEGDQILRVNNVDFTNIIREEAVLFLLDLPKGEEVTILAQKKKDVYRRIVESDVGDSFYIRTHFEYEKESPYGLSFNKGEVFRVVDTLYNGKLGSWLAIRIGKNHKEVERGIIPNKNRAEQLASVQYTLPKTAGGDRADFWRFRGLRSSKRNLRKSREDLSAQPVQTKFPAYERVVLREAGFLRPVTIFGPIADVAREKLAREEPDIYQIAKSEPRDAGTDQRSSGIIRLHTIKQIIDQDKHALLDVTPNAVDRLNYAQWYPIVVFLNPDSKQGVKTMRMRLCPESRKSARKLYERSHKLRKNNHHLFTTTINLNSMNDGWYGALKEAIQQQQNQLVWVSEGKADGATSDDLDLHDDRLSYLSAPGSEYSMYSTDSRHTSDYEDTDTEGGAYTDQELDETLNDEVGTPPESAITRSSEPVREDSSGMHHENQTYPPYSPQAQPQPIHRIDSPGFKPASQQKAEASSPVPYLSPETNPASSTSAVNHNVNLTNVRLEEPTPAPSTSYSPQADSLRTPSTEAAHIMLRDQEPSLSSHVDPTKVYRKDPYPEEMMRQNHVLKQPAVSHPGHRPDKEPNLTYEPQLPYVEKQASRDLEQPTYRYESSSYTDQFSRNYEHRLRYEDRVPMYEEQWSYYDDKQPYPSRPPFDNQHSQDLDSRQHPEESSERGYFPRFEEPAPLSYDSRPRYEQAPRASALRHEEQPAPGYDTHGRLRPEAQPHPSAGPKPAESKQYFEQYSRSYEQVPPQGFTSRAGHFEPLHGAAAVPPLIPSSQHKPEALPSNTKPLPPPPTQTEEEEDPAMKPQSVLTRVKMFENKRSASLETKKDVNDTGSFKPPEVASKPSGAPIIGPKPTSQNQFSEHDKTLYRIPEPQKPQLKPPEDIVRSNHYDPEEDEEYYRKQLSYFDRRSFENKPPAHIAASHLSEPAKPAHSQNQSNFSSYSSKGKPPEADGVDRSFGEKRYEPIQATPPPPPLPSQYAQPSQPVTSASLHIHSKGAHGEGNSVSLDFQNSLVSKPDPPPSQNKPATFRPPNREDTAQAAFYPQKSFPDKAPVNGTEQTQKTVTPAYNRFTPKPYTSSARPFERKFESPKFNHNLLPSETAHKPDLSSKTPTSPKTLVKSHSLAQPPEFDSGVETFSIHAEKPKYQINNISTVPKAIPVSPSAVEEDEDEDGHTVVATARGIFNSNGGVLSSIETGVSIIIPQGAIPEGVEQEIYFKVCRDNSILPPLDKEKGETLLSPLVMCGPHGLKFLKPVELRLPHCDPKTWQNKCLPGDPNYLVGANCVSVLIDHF

Key:
[1] = molecular target: T1, Flag-tagged human OCLN (Y287/315/325/443F) (human) (UniProt Q16625); experiment: co-IP; anti-Flag immunoprecipitation of Flag-OCLN or OCLN-4YF from H1299 derivative cells, with or without H2O2 (1 mM, 30 min; 0.5 mM in DUSP3TR/OCLN cells with or without tetracycline for 12 h); immunoblot of the immunocomplexes
T1 sequence: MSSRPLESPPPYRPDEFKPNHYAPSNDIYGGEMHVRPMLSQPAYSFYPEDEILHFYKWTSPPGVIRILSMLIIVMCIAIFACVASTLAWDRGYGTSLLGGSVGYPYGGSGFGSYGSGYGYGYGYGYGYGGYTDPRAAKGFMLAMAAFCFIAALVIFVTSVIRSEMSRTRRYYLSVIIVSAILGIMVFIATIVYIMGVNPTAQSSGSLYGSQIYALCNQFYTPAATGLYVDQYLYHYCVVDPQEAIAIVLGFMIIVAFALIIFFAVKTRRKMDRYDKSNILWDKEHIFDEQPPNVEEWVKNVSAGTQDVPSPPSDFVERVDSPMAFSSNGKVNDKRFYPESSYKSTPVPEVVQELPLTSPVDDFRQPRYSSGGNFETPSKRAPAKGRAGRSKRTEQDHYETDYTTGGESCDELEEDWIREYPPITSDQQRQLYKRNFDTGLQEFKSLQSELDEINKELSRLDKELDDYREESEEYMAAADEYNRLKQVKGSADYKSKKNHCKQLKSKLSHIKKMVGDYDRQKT

[2] = molecular target: T2, Flag-tagged human OCLN (wild type) (human) (UniProt Q16625); experiment: as above
T2 sequence: T1 sequence with F287Y, F315Y, F325Y, F443Y

[3] = molecular target: T3, Occludin (OCLN), endogenous in H1299-DUSP3TR and H1299-DUSP3-CSTR cells (human (endogenous in H1299)) (UniProt Q16625); experiment: co-IP; endogenous OCLN and ZO-1 immunoprecipitated from H1299-DUSP3TR and H1299-DUSP3-CSTR cells treated with or without tetracycline (1 μg/ml, 8 h); immunoblot of the immunocomplexes
T3 sequence: T1 sequence with F287Y, F315Y, F325Y, F443Y

Row | binding [1] | binding [2] | binding [3] | Substance
1 | binds | binds |  | Focal adhesion kinase (FAK), endogenous in H1299 cells (from UniProt Q05397 1-1052) (enzyme)
2 |  |  | binds | Zonula occludens-1 (ZO-1), endogenous in H1299-DUSP3TR and H1299-DUSP3-CSTR cells (from UniProt Q07157 1-1748)
